# Laboratory results taken from PMC9348797.
# Results are given in words; binding and its absence hold for the method and conditions named. Binding seen in cells or lysates may run through a third protein. These calls come from enrichment with a bait or labelling near it, and not all partners need be listed. Sequences can lack the tags named with a protein.
# T1: KCTD7-FLAG (endogenous KCTD7 with a knocked-in FLAG tag) (human (endogenous in HeLa)) (UniProt Q96MP8)
# T1 sequence: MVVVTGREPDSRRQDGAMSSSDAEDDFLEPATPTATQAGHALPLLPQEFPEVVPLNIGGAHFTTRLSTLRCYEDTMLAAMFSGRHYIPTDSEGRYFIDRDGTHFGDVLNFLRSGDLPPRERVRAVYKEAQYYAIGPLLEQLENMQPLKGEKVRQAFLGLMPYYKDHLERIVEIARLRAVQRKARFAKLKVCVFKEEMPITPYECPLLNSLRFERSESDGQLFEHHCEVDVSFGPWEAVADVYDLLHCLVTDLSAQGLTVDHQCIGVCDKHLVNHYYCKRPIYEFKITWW
# Target: T1, KCTD7-FLAG (endogenous KCTD7 with a knocked-in FLAG tag) (human (endogenous in HeLa))
# Assay: affinity purification with mass spectrometry; anti-FLAG M2 agarose on lysate of KCTD7-FLAG knock-in HeLa cells (20 mM tris-Cl pH 7.4, 100 mM NaCl, 0.2 mM EDTA, 0.5% NP-40), 4°C overnight, eluted with FLAG peptide, SDS-PAGE bands sequenced by MS
binder,measurement,value
"CLN5 (endogenous, HeLa) (protein, UniProt O75503 1-358, heavily N-glycosylated (about 50 kDa, about 35 kDa after PNGase F)) MAQEVDTAQGAEMRRGAGAARGRASWCWALALLWLAVVPGWSRVSGIPSRRHWPVPYKRFDFRPKPDPYCQAKYTFCPTGSPIPVMEGDDDIEVFRLQAPVWEFKYGDLLGHLKIMHDAIGFRSTLTGKNYTMEWYELFQLGNCTFPHLRPEMDAPFWCNQGAACFFEGIDDVHWKENGTLVQVATISGNMFNQMAKWVKQDNETGIYYETWNVKASPEKGAETWFDSYDCSKFVLRTFNKLAEFGAEFKNIETNYTRIFLYSGEPTYLGNETSVFGPTGNKTLGLAIKRFYYPFKPHLPTKEFLLSLLQIFDAVIVHKQFYLFYNFEYWFLPMKFPFIKITYEEIPLPIRNKTLSGL",binding,binds
